Drawing on the supplement of paper PMC11348887, this text covers nucleus area z-score for 13 molecules.

Structures can show the parent of a compound that is named as a salt. Some of the results follow. Most values lie at the level of the controls, where differences are scatter.

The assay relates to hPSC-derived cortical neurons (WA09). In words: nucleus area z-score vs screen plate; higher = larger nuclei (more mature). The following applies: 5 µM; treatment: days 7-14 after plating, readout day 21.
Consider `Cn1cc(-c2ccc(F)c(C(F)(F)F)c2)nc1C1CCN(c2ncnc3[nH]ncc23)CC1`, for which the nucleus area z-score came out at 0.502.
Turning to `c1cc(-c2cnn3cc(-c4ccc(OCCN5CCCCC5)cc4)cnc23)ccn1` [Dorsomorphin (Compound C)], the nucleus area z-score was 0.283.
In the case of `CN1CCN(C2=Nc3ccccc3Oc3ccc(Cl)cc32)CC1` [Loxapine Succinate] it was 0.272; in that of `NC(=O)c1cnc2[nH]ccc2c1NC1[C@@H]2CC3C[C@H]1CC(O)(C3)C2` (stereo partly drawn), -0.0578; in that of `CN(C)c1cc(NC(=O)CNC(C)(C)C)c(O)c2c1C[C@H]1C[C@H]3[C@H](N(C)C)C(O)=C(C(N)=O)C(=O)[C@@]3(O)C(O)=C1C2=O` [Tigecycline], 0.0522.
In the case of `Cn1c(Nc2ccc(C(F)(F)F)cc2)nc2cc(Oc3ccnc(-c4ncc(C(F)(F)F)[nH]4)c3)ccc21` it was -2.01.
To `CC(=O)NO` [Acetohydroxamic acid] belongs 0.0697; to `CC(CNC(=O)c1cccnc1)NC(=O)c1cccnc1` (stereo not drawn) [Nicaraven], 1.32.
With `O=C(CCN1CCN(C(=O)OCc2cc(Cl)cc(Cl)c2)CC1)c1ccc2[nH]c(=O)oc2c1`, the nucleus area z-score turned out to be 0.15.
`CN1[C@@H]2CC[C@H]1C[C@@H](OC(=O)c1c[nH]c3ccccc13)C2` [Tropisetron] returned a nucleus area z-score of -0.677.
In the case of `CCS(=O)(=O)Nc1ccc2c(c1)/C(=C(/Nc1ccc(CN3CCCCC3)cc1)c1ccccc1)C(=O)N2` [Hesperadin] it was -3.75; in that of `CC(CN(C)C)CN1c2ccccc2CCc2ccccc21` (stereo not drawn) [Trimipramine Maleate], -0.863; in that of `CC(=O)O[C@]1(C(C)=O)CC[C@H]2[C@@H]3C=C(Cl)C4=CC(=O)[C@@H]5C[C@@H]5[C@]4(C)[C@H]3CC[C@@]21C` [Cyproterone Acetate], -0.0968.
